The list shows a part of the results. Values are raw readings; no control value is given beside them.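 First-pass screen: polymyxin B was added at a level that permeabilizes the Salmonella outer membrane while sparing the inner membrane. DMSO wells, with and without polymyxin B, defined maximum growth. Because plates differed from one another, each plate's data were ranked separately and the compounds with the lowest OD600 were carried forward as hits.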
System: Salmonella enterica serovar Typhimurium SL1344
Assay: bacterial growth OD600 after 18 h with compound and polymyxin B; higher = more bacterial growth (less inhibition)
Conditions: 50 µM, Mueller-Hinton broth

COc1ccc(CN2CCCC(CO)(Cc3ccccc3)C2)c(C)c1C (stereo unspecified)
bacterial growth OD600 (polymyxin B 1 µg/mL): 0.795

COc1ccc(NC2CCCN(C(=O)c3ccccc3C(F)(F)F)C2)cc1OC (stereo unspecified)
bacterial growth OD600 (polymyxin B 1 µg/mL): 1.06

O=C(NCC1CC(=O)N(C2CC2)C1)c1ccc2oc(Cc3ccc(Cl)cc3)nc2c1 (stereo unspecified)
bacterial growth OD600 (polymyxin B 1 µg/mL): 0.975

CCn1cc(CN2CCC(c3ccc(F)c(F)c3)Sc3ccccc32)c(C)n1 (stereo unspecified)
bacterial growth OD600 (polymyxin B 0.75 µg/mL): -0.001

CCOc1cc(CN2CCC(C(Cc3ccccc3F)N(C)C(=O)c3ccoc3C)CC2)ccc1O (stereo unspecified)
bacterial growth OD600 (polymyxin B 0.75 µg/mL): 0.861

C=CCCC(=O)N1CCC(Oc2cccc(C(=O)NCc3ccccn3)c2)CC1
bacterial growth OD600 (polymyxin B 1 µg/mL): 0.841

COc1ccccc1CC(=O)N1CCC(C(Cc2ccccc2)N(C)C(=O)c2ccccn2)CC1 (stereo unspecified)
bacterial growth OD600 (polymyxin B 0.75 µg/mL): 0.941

CCc1noc(C)c1C(=O)N1CCCC(Nc2cccc(F)c2)C1 (stereo unspecified)
bacterial growth OD600 (polymyxin B 1 µg/mL): 0.847

Cc1cccc(-n2ccnc2CN2CCCC(N3CCC(CO)CC3)C2)c1 (stereo unspecified)
bacterial growth OD600 (polymyxin B 1 µg/mL): 0.952

CCC1CN(C(=O)c2cccc(C#CC(C)(C)O)c2)Cc2ccc(Cl)cc2O1 (stereo unspecified)
bacterial growth OD600 (polymyxin B 0.75 µg/mL): 0.004

O=C(c1cc(-c2ccsc2)n[nH]1)N1CCCC(CO)(Cc2cccc(Cl)c2)C1 (stereo unspecified)
bacterial growth OD600 (polymyxin B 0.75 µg/mL): 0.014

COc1ccc(-c2cnnc(NCc3cnn(C)c3C)n2)cc1F
bacterial growth OD600 (polymyxin B 0.75 µg/mL): 0.79

COc1ccc(CCN2CC(C(=O)NCc3ccccc3)CCC2=O)cc1 (stereo unspecified)
bacterial growth OD600 (polymyxin B 1 µg/mL): 0.88

CCOC(=O)N1CCN(Cc2nc(-c3ccccn3)no2)CC1
bacterial growth OD600 (polymyxin B 1 µg/mL): 0.931

COc1ccc(C(=O)NC2CC2)c(OC2CCN(Cc3sccc3C)CC2)c1
bacterial growth OD600 (polymyxin B 0.75 µg/mL): 0.76

O=C(NCC(F)(F)F)C1CCN(C2CCN(c3nc4ccccc4o3)CC2)CC1
bacterial growth OD600 (polymyxin B 0.75 µg/mL): 0.882

O=C(NCc1ccccc1)C1CCCN(C2CCN(CC3CCCC3)CC2)C1 (stereo unspecified)
bacterial growth OD600 (polymyxin B 0.75 µg/mL): 0.769

O=C(NCCCN1CCCC(O)C1)c1ccc2oc(CCc3ccccc3)nc2c1 (stereo unspecified)
bacterial growth OD600 (polymyxin B 0.75 µg/mL): 0.757

COc1cc(CNC(=O)c2sc3ncnc(N4CCCCCCC4)c3c2C)cc(OC)c1OC
bacterial growth OD600 (polymyxin B 0.75 µg/mL): 0.618

O=C(N1CCC[C@H]1CO)C1(N2CCCCC2)Cc2ccccc2C1
bacterial growth OD600 (polymyxin B 0.75 µg/mL): 0.868

COc1cccc(CC2(CCC(=O)N3CCN(c4ncc5ccccc5n4)CC3)CCC(=O)N2)c1 (stereo unspecified)
bacterial growth OD600 (polymyxin B 0.75 µg/mL): 0.827

CN(Cc1ncc[nH]1)C1CCCN(CCc2ccccc2)C1 (stereo unspecified)
bacterial growth OD600 (polymyxin B 1 µg/mL): 0.856

COc1ccccc1CN1CCCC(CNC(=O)c2cccs2)C1 (stereo unspecified)
bacterial growth OD600 (polymyxin B 1 µg/mL): 1.05

COc1cccc(CN2CCN(Cc3ccccc3F)C(CCO)C2)c1OC (stereo unspecified)
bacterial growth OD600 (polymyxin B 1 µg/mL): 0.932

COCc1c(C(=O)NCC2(N3CCCCC3)CCCCC2)cnn1-c1nccc(-c2cccs2)n1
bacterial growth OD600 (polymyxin B 0.75 µg/mL): 0.752

CCN1CCN(C2(C(=O)N(C)Cc3ccc(C)o3)Cc3ccccc3C2)CC1
bacterial growth OD600 (polymyxin B 0.75 µg/mL): 0.776

COc1ccc(-c2cnnc(N3CC[C@@H]4CCCC[C@H]4C3)n2)cc1
bacterial growth OD600 (polymyxin B 0.75 µg/mL): 0.192

Cc1ccc(CNC(=O)C2(N(C)C)Cc3ccccc3C2)s1
bacterial growth OD600 (polymyxin B 1 µg/mL): 1.04

O=C(CCC1CCN(C(=O)C2=CCCCC2)CC1)Nc1ccc2c(c1)OCCO2
bacterial growth OD600 (polymyxin B 1 µg/mL): 0.904

COC(=O)CC(NC1CCN(c2cccc(NC(=O)CCCc3ccccc3)c2)CC1)C(=O)OC (stereo unspecified)
bacterial growth OD600 (polymyxin B 0.75 µg/mL): 0.703

O=C(NCC1CCCCO1)c1cc(COc2ccc3c(c2)OCO3)[nH]n1 (stereo unspecified)
bacterial growth OD600 (polymyxin B 1 µg/mL): 0.878

From the supplement of paper PMC12889115
